# Experimental data reported in PubChem BioAssay AID504467 (National Center for Advancing Translational Sciences (NCATS), 2011).
# About 7,700 (2.3%) of roughly 330,000 compounds were called active. The shares of active, inactive and inconclusive entries below differ from those in the screen. Calls follow the shape of the dose curve; as a rule, active = well fitted inhibition curve with a large enough effect; inconclusive = small, poorly fitted or top-dose-only effect, or effect the other way; inactive = flat fitted curve, though single readings scatter. Potencies of inconclusive entries are doubtful fits and often do not repeat.
# Experiment: qHTS screen for small molecules that inhibit ELG1-dependent DNA repair in human embryonic kidney (HEK293T) cells expressing luciferase-tagged ELG1; also: nearly all actives have a fitted effect of over 55% in size
# Conditions: HEK293T ELG1-luciferase reporter, luminescence, 16 h, DNA damage induced by 5-fluorouridine; series mostly up to 46.1 µM
# In short: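 DMSO vehicle served as the neutral condition. Each well held 2,000 cells given 5-fluorouridine plus compound; after 16 hr at 37 °C/5% CO2, ONE-Glo was added and luciferase measured 30 min later.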
# Potency is read from the fitted curve at half-maximal effect.
row,Compound,Potency
1,COC(=O)N1C(=O)[C@](c2ccccc2)(C2CCCCC2)N1C(=O)OC,inactive
2,CCn1c(=O)c2cc(C(=O)N3CCN(C)CC3)sc2c2ccccc21,"inconclusive: 29.1 µM [activator, single point]"
3,COc1ccccc1N1CCN(C(=O)Cn2cnc3c2c(=O)n(C)c(=O)n3C)CC1,"inconclusive: 6.51 µM [activator, single point]"
4,COc1ccc(/C=C2\SC(=O)N(CCC(=O)N(C)C3CCS(=O)(=O)C3)C2=O)cc1 (configuration not stated),"inconclusive: 29.1 µM [activator, single point]"
5,COc1ccc(NS(=O)(=O)c2cc(NC(=O)Cc3cccs3)ccc2C)cc1,"inconclusive: 18.4 µM [inhibitor, single point]"
6,O=C(Nc1ccc(F)cc1F)N1CCCC(c2nc(-c3ccc(F)cc3)no2)C1 (configuration not stated),"inconclusive: 23.1 µM [inhibitor, single point]"
7,Cc1cnn(Cc2cccnc2)c1N,inactive
8,COc1nc(-c2ccc(C)cc2)ccc1-c1noc(-c2ccco2)n1,"inconclusive: 16.4 µM [activator, partial curve]"
9,CCCSc1nsc(NC(=O)CCC)n1,"inconclusive: 23.1 µM [activator, partial curve, poor fit]"
10,CSCCC(NC(=O)c1ccccc1Cl)C(=O)N(C)CC(=O)Nc1ccc(N2CCOCC2)cc1 (configuration not stated),inactive
11,COc1ccc(-c2coc3cc(OC)cc(OC)c3c2=O)cc1,"inconclusive: 29.1 µM [activator, single point]"
12,CCOC(=O)C1=C(C)Nc2ccccc2N=C1NC(=O)c1cccc(S(=O)(=O)N(C)C)c1,"inconclusive: 18.4 µM [inhibitor, single point]"
13,COc1ccc(Nc2ccnc3ccccc23)cc1,active: 16.4 µM
14,CCCn1c(SCC(=O)N2CCCC2=O)nc2ccccc2c1=O,inactive
15,CC1CCN(c2ccc(NC(=O)c3ccc([N+](=O)[O-])o3)cc2)CC1,"inconclusive: 5.17 µM [activator, partial curve]"
16,C=CCn1c(Oc2ccc(C(=O)OC)cc2)nc2c1c(=O)n(C)c(=O)n2C,"inconclusive: 16.4 µM [inhibitor, partial curve, poor fit]"
17,Cc1cc(-n2[nH]c(C)c(C)c2=O)nc(-c2ccccc2O)n1,"inconclusive: 20 µM [inhibitor, single point]"
18,CCCNc1c(NC(=O)c2ccc3c(c2)OCO3)c(=O)oc2ccccc12,inactive
19,O=C1CC(c2ccc3c(c2)OCCO3)Oc2ccccc21 (configuration not stated),"inconclusive: 5.8 µM [activator, partial curve]"
20,CC(C)(C)[C@H]1COC(=O)CCC/C=C/C[C@H](CC(=O)NCCO)C(=O)N1,"inconclusive: 18.3 µM [activator, single point]"
21,Cn1nc(C(=O)NCCc2ccc(Cl)cc2)c2c1-c1ccccc1S(=O)(=O)C2,"inconclusive: 29.1 µM [inhibitor, single point]"
22,CCC(C)(C)NC(=O)C(c1ccc(OC)cc1)N(C(=O)CCC(=O)Nc1cc(C)on1)c1ccc2c(c1)OCCO2 (configuration not stated),inactive
23,COc1cccc(NC(=O)N2CCCC2C(=O)Nc2cc(C)ccc2OC)c1 (configuration not stated),inactive

row,Compound,Potency
1,CCN(CC(=O)Nc1ccc2c(c1)OCCO2)C(=O)c1cc(Cl)nc2ccccc12,inactive
2,CCCC(=O)Nc1ccc(-c2nc3cc(C)c(C)cc3o2)cc1,"inconclusive: 1.3 µM [activator, partial curve]"
3,Cc1nc(SCc2cccc(C(=O)O)c2)nc2c1CCCC2,"inconclusive: 2.59 µM [activator, partial curve]"
4,Cn1c(CSCc2ccccc2Cl)nnc1SCC(=O)Nc1nccs1,inactive
5,CC1(CCc2ccccc2)NC(=O)N(CC(=O)Nc2ccccc2)C1=O (configuration not stated),"inconclusive: 4.11 µM [activator, partial curve, poor fit]"
6,Nc1nonc1C(=O)N/N=C/c1ccc(-c2cccc([N+](=O)[O-])c2)o1,"inconclusive: 20.6 µM [inhibitor, partial curve, poor fit]"
7,CCn1cc(C(=O)NCC2CCCO2)c(=O)c2cc(S(=O)(=O)N3CCC(C)CC3)ccc21 (configuration not stated),"inconclusive: 9.2 µM [inhibitor, partial curve, poor fit]"
8,COC(=O)Cn1c(=O)c(C(=O)CCl)c(N)n(Cc2ccccc2)c1=O,"inconclusive: 25.9 µM [inhibitor, partial curve]"
9,CCN(CC)C(=O)Cn1cnc2sc(C(=O)N3CCN(Cc4ccc5c(c4)OCO5)CC3)c(C)c2c1=O,active: 8.2 µM
10,Cc1cccc(N(CC(=O)NCc2ccc3c(c2)OCO3)C(=O)CCC(=O)Nc2ccccn2)c1,"inconclusive: 29.1 µM [inhibitor, partial curve, poor fit]"
11,CCOC(=O)c1sc2nc(C)nc(SC(C)C(=O)NC3CC3)c2c1C (configuration not stated),inactive
12,NS(=O)(=O)c1ccc(NC(=O)COc2ccc(C(=O)c3ccc(F)cc3)cc2)cc1,"inconclusive: 14.6 µM [inhibitor, partial curve, poor fit]"
13,Cc1ccc(NC(=S)/C(=C(\[O-])c2ccc(Cl)s2)[n+]2cccc(CO)c2)cc1C,"inconclusive: 20.6 µM [activator, partial curve]"
14,CCOc1ccc(CN(C)CC(=O)Nc2cc(C)c(C)cc2[N+](=O)[O-])cc1,"inconclusive: 29.1 µM [inhibitor, single point]"
15,CCC(C)(C(=O)NC1CCCC1)N(Cc1cccs1)C(=O)Cc1cccs1 (configuration not stated),"inconclusive: 16.4 µM [inhibitor, partial curve, poor fit]"
16,COc1ccccc1NC(=O)C1CCN(C(=O)c2ccco2)CC1,inactive
17,O=C(c1ccc2c3n(nc2c1)-c1ccc(Cl)cc1CO3)N1CCCCC1,"inconclusive: 8.2 µM [activator, partial curve]"
18,COC(=O)c1cn(NC(=O)/C=C/c2cccc(OC)c2OC)c(=O)c2ccccc12,inactive
19,Cc1ccc(-c2nnc(N3CCC(C)CC3)c3ccccc23)cc1C,"inconclusive: 25.9 µM [inhibitor, partial curve, poor fit]"
20,COc1cc(C(=O)N/N=C(\Cc2ncc[nH]2)c2ccccc2)cc(OC)c1OC,"inconclusive: 20.6 µM [inhibitor, single point]"
21,Cc1ccnc(NC(=O)c2sc3ccccc3c2Cl)c1,"inconclusive: 0.58 µM [activator, full curve]"
22,COCCSc1ccccc1C(=O)Nc1cccnc1,inactive
23,CCOc1cccc(=O)c2c(C)n(Cc3ccco3)c(C)c12,"inconclusive: 16.4 µM [inhibitor, partial curve]"

row,Compound,Potency
1,NNc1ccc(Cl)c(C(=O)O)c1,"inconclusive: 18.3 µM [activator, partial curve]"
2,CCOC(=O)CSc1nnc(-c2ccco2)n1-c1ccccc1,"inconclusive: 4.61 µM [inhibitor, partial curve, poor fit]"
3,Cc1ccc(NC(=O)CSc2nc3c(c(=O)[nH]2)CCC3)c(C)c1,inactive
4,COc1cccc(N2CCN(CC(=O)c3c[nH]c4ccc(OC)cc34)CC2C)c1 (configuration not stated),"inconclusive: 23.1 µM [inhibitor, single point]"
5,COc1ccc(CC(=O)NNC(=O)c2ccc(SCc3cc(F)ccc3F)c([N+](=O)[O-])c2)cc1,inactive
6,Nc1nc(N)c(C=Nc2ccc(Br)cc2)c(Nc2ccc(Br)cc2)n1,inactive
7,COc1ccccc1OCCCOc1cccc(/C=C2\SC(=O)NC2=O)c1,"inconclusive: 0.501 µM [inhibitor, partial curve, poor fit]"
8,Cc1cc(N)n(-c2ccc([N+](=O)[O-])cc2)n1,"inconclusive: 29.1 µM [activator, single point]"
9,CC1CCN(c2nc3ccc(C(=O)N4CCN(Cc5ccc6c(c5)OCO6)CC4)cc3s2)CC1,"inconclusive: 2.59 µM [activator, partial curve]"
10,O=C1CN(S(=O)(=O)c2cccc(Cl)c2Cl)c2ccccc2N1,"inconclusive: 23.1 µM [activator, partial curve, poor fit]"
11,CC(C)Cc1nnc(NC(=O)CCc2c[nH]c3ccccc23)s1,inactive
12,COc1ccc(-c2nn(-c3ccccc3)cc2C(=O)N2CCN(S(=O)(=O)c3cccc(F)c3)CC2)cc1,"inconclusive: 18.3 µM [inhibitor, single point]"
13,O=[N+]([O-])c1cc(Br)c(O)c(/C=N/Nc2nc3ccccc3s2)c1,active: 4.11 µM
14,COCCCNC(=O)/C=C/c1ccc(Cl)cc1,"inconclusive: 25.9 µM [activator, single point]"
15,O=C(O[C@@H](C(=O)O)[C@@H](OC(=O)c1ccccc1)C(=O)O)c1ccccc1,"inconclusive: 1.16 µM [inhibitor, single point]"
16,O=C1C=C(c2ccc(C(=O)O)c(Cl)c2)C[C@@H](c2ccc3c(c2)OCO3)C1,"inconclusive: 29.1 µM [activator, single point]"
17,CN(C(=O)CCS(=O)(=O)c1cc2c(cc1Cl)NC(=O)CO2)C1CCCCC1,inactive
18,COc1ccccc1N(CC(=O)N/N=C(\C)c1ccccc1O)S(=O)(=O)c1ccc(C)cc1,"inconclusive: 29.1 µM [inhibitor, partial curve, poor fit]"
19,O=C(CCN1C(=O)S/C(=C\c2ccc(F)cc2)C1=O)Nc1ccc(C(=O)O)c(O)c1,"inconclusive: 0.92 µM [activator, full curve, poor fit]"
20,COc1ccc(N2CCN(C(=O)[C@H](C)N3C(=O)C4CC=CCC4C3=O)CC2)cc1 (some centres not stated),inactive
21,CN(C)S(=O)(=O)c1cccc(NC(=O)c2cc(-c3cccs3)nn2-c2ccccc2)c1,"inconclusive: 13 µM [inhibitor, partial curve]"

# Six entries from above, arranged by number of heavy atoms, falling:
row,Compound,Potency
12,COc1ccc(-c2nn(-c3ccccc3)cc2C(=O)N2CCN(S(=O)(=O)c3cccc(F)c3)CC2)cc1,"inconclusive: 18.3 µM [inhibitor, single point]"
5,COc1ccc(CC(=O)NNC(=O)c2ccc(SCc3cc(F)ccc3F)c([N+](=O)[O-])c2)cc1,inactive
4,COc1cccc(N2CCN(CC(=O)c3c[nH]c4ccc(OC)cc34)CC2C)c1 (configuration not stated),"inconclusive: 23.1 µM [inhibitor, single point]"
17,CN(C(=O)CCS(=O)(=O)c1cc2c(cc1Cl)NC(=O)CO2)C1CCCCC1,inactive
6,Nc1nc(N)c(C=Nc2ccc(Br)cc2)c(Nc2ccc(Br)cc2)n1,inactive
3,Cc1ccc(NC(=O)CSc2nc3c(c(=O)[nH]2)CCC3)c(C)c1,inactive
